Laboratory results from US20180327364A1, “MTOR INHIBITORS AND METHODS OF USE THEREOF” (Brandeis University, priority 2015, published 2018).
At least one compound was matched to its structure with a doubt left.

Tested on: LC3 A/B II
Assay: LC3 A/B II immunoblot (autophagy) in HEK-293T cells
Format: cell-based
Details: Cbz-B3A 10 μM, rapamycin 20 nM, 4 h
Description: Quantification of western blots was performed with ImageJ. Cells were lysed in RIPA buffer (1% NP-40, 1% NaDeoxycholate, 0.1% SDS, 10 mM TrisCl, 10 mM β-glycerophosphate, 10 mM Na pyrophosphate, 50 mM NaF, 200 μM Na vanadate, 1 mM EDTA, 500 μM EGTA, 1% benzonase, and supplemented with complete (Roche Diagnostics) protease inhibitors).

## CO[C@H]1C[C@@H]2CC[C@@H](C)[C@@](O)(O2)C(=O)C(=O)N2CCCC[C@H]2C(=O)O[C@H]([C@H](C)C[C@@H]2CC[C@@H](O)[C@H](OC)C2)CC(=O)[C@H](C)/C=C(\C)[C@@H](O)[C@@H](OC)C(=O)[C@H](C)C[C@H](C)/C=C/C=C/C=C/1C [rapamycin, reference compound]
  LC3 A/B II (autophagy): increase autophagy
